Measured values from patent publication US6774105.
No constants are given. Whether binding was seen depends on the method and setting. In cells and extracts the contact can be indirect. Some binding calls cover weakened binding; strength is not graded here.

Chains of the proteins cited; added tags and fusions are not shown. Residues count along the entry.
UniProt P04202, residues 30-390: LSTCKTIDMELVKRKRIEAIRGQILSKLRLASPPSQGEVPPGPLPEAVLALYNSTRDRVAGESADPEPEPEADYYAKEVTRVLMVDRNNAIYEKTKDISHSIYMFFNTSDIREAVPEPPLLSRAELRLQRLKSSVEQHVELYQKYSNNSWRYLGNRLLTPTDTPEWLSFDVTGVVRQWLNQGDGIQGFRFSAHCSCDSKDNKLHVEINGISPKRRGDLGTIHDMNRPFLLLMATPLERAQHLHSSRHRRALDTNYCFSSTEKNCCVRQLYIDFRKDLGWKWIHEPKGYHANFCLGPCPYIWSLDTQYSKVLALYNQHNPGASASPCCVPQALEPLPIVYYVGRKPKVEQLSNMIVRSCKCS

What was measured:
[1] = target: TGF-β1 produced by MC3T3-E1 cells (mouse (produced by murine MC3T3-E1 cells)) (UniProt P04202); assay: complex in MC3T3-E1 culture medium (co-immunoprecipitation)
[2] = target: TGF-β1 produced by MC3T3-E1 cells (mouse (produced by murine MC3T3-E1 cells)) (UniProt P04202); assay: co-immunoprecipitation with antibody #274 from MC3T3-E1 medium, Western blot with anti-TGF-β1
[3] = target: TGF-β1 produced by MC3T3-E1 cells (mouse (produced by murine MC3T3-E1 cells)) (UniProt P04202); assay: co-immunoprecipitation with antibody #274 from MC3T3-E1 medium, combined with Western analysis

- binding [1]: binds
- binding [2]: binds
- binding [3]: binds
B1: murine LTBP-3 polypeptide (latent TGF-β binding protein-3) (protein)
chain: GRGVGRPGSGAQAGAGRWAQRFKVVFAPVICKRTCLKGQCRDSCQQGSNMTLIGENGHSTDTLTGSAFRVVVCPLPCMNGGQCSSRNQCLCPPDFTGRFCQVPAAGTGAGTGSSGPGWPDRAMSTGPLPPLAPEGESVASKHAIYAVQVIADPPGPGEGPPAQHAAFLVPLGPGQISAEVQAPPPVVNVRVHHPPEASVQVHRIEGPNAEGPASSQHLLPHPKPPHPRPPTQKPLGRCFQDTLPKQPCGSNPLPGLTKQEDCCGSIGTAWGQSKCHKCPQLQYTGVQKPVPVRGEVGADCPQGYKRLNSTHCQDINECAMPGNVCHGDCLNNPGSYRCVCPPGHSLGPLAAQCIADKPEEKSLCFRLVSTEHQCQHPLTTRLTRQLCCCSVGKAWGARCQRCPADGTAAFKEICPGWERVPYPHLPPDAHHPGGKRLLPLPAPDGPPKPQQLPESPSRAPPLEDTEEERGVTMDPPVSEERSVQQSHPTTTTSPPRPYPELISRPSPPTFHRFLPDLPPSRSAVEIAPTQVTETDECRLNQNICGHGQCVPGPSDYSCHCNAGYRSHPQHRYCVDVNECEAEPCGPGKGICMNTGGSYNCHCNRGYRLHVGAGGRSCVDLNECAKPHLCGDGGFCINFPGHYKCNCYPGYRLKASRPPICEDIDECRDPSTCPDGKCENKPGSFKCIACQPGYRSQGGGACRDVNECSEGTPCSPGWCENLPGSYRCTCAQGIRTRTGRLSCIDVDECEAGKVCQDGICTNTPGSFQCQCLSGYHLSRDRSRCEDIDECDFPAACIGGDCINTNGSYRCLCPLGHRLVGGRKCKKDIDECSQDPGLCLPHACENLQGSYVCVCDEGFTLTQDQHGCEEVEQPHHKKECYLNFDDTVFCDSVLATNVTQQECCCSLGAGWGDHCEIYPCPVYSSAEFHSLVPDGKRLHSGQQHCELCIPAHRDIDECILFGAEICKEGKCVNTQPGYECYCKQGFYYDGNLLECVDVDECLDESNCRNGVCENTRGGYRCACTPPAEYSPAQAQCLIPERWSTPQRDVKCAGASEERTACVWGPWAGPALTFDDCCCRQPRLGTQCRPCPPRGTGSQCPTSQSESNSFWDTSPLLLGKSPRDEDSSEEDSDECRCVSGRCVPRPGGAVCECPGGFQLDASRARCVDIDECRELNQRGLLCKSERCVNTSGSFRCVCKAGFTRSRPHGPACLSAAADDAAIAHTSVIDHRGY
